# In the supplement of paper PMC8728848:
# This is one part of the list.
# Assays:
# Assay in all cases: glycan array binding signal (z-score within array); higher = stronger binding
# Details in all cases: glycan notation: IUPAC condensed, linker removed
# [1] = molecular target: Gal(b1-4)GlcNAc(b1-2)Man(a1-6)[Man(a1-3)]Man(b1-4)GlcNAc(b1-4)GlcNAc
# Outline: (§1)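 Glycan array data were curated from 3228 arrays in the Consortium for Functional Glycomics database and kept only where the protein sequence was available. Glycan names were converted to IUPAC-condensed notation, and columns mapping to the same glycan were averaged. The binding signal is a within-array Z-score, averaged across arrays of the same protein sequence at different concentrations or buffers and across linkers. Negative Z-scores can be read as non-binding.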
# [2] = molecular target: Gal(b1-4)GlcNAc(b1-2)[Gal(b1-4)GlcNAc(b1-4)]Man(a1-3)[Gal(b1-4)GlcNAc(b1-2)Man(a1-6)]Man(b1-4)GlcNAc(b1-4)GlcNAc
# Outline: as §1
# [3] = molecular target: Gal(b1-4)GlcNAc(b1-2)[Gal(b1-4)GlcNAc(b1-4)]Man(a1-3)[Gal(b1-4)GlcNAc(b1-2)[Gal(b1-4)GlcNAc(b1-6)]Man(a1-6)]Man(b1-4)GlcNAc(b1-4)GlcNAc
# Outline: as §1
# [4] = molecular target: Gal(b1-4)GlcNAc(b1-2)[Gal(b1-4)GlcNAc(b1-4)]Man(a1-3)[GlcNAc(b1-4)][Gal(b1-4)GlcNAc(b1-2)Man(a1-6)]Man(b1-4)GlcNAc(b1-4)GlcNAc
# Outline: as §1
# [5] = molecular target: Gal(b1-4)GlcNAc(b1-2)[Gal(b1-4)GlcNAc(b1-4)]Man(a1-3)[GlcNAc(b1-4)][Gal(b1-4)GlcNAc(b1-2)[Gal(b1-4)GlcNAc(b1-6)]Man(a1-6)]Man(b1-4)GlcNAc(b1-4)GlcNAc
# Outline: as §1
# [6] = molecular target: Gal(b1-4)GlcNAc(b1-2)[Gal(b1-4)GlcNAc(b1-6)]Man(a1-6)[Gal(b1-4)GlcNAc(b1-2)Man(a1-3)]Man(b1-4)GlcNAc(b1-4)GlcNAc
# Outline: as §1
# [7] = molecular target: Gal(b1-4)GlcNAc(b1-2)[Gal(b1-4)GlcNAc(b1-6)]Man(a1-6)[Gal(b1-4)GlcNAc(b1-2)Man(a1-3)]Man(b1-4)GlcNAc(b1-4)[Fuc(a1-6)]GlcNAc
# Outline: as §1
# [8] = molecular target: Gal(b1-4)GlcNAc(b1-2)[Gal(b1-4)GlcNAc(b1-6)]Man(a1-6)[GlcNAc(b1-4)][Gal(b1-4)GlcNAc(b1-2)Man(a1-3)]Man(b1-4)GlcNAc(b1-4)GlcNAc
# Outline: as §1
# [9] = molecular target: Gal(b1-4)GlcNAc(b1-2)[Gal(b1-4)GlcNAc(b1-6)]Man(a1-6)[GlcNAc(b1-4)][Gal(b1-4)GlcNAc(b1-2)[Gal(b1-4)GlcNAc(b1-4)]Man(a1-3)]Man(b1-4)GlcNAc(b1-4)[Fuc(a1-6)]GlcNAc
# Outline: as §1
# [10] = molecular target: Gal(b1-4)GlcNAc(b1-3)Gal(b1-3)GalNAc
# Outline: as §1
# [11] = molecular target: Gal(b1-4)GlcNAc(b1-3)Gal(b1-3)GlcNAc
# Outline: as §1
# [12] = molecular target: Gal(b1-4)GlcNAc(b1-3)Gal(b1-4)Glc
# Outline: as §1
# [13] = molecular target: Gal(b1-4)GlcNAc(b1-3)Gal(b1-4)GlcNAc
# Outline: as §1
# [14] = molecular target: Gal(b1-4)GlcNAc(b1-3)Gal(b1-4)GlcNAc(b1-2)Man(a1-3)[Gal(b1-4)GlcNAc(b1-3)Gal(b1-4)GlcNAc(b1-2)Man(a1-6)]Man(b1-4)GlcNAc(b1-4)GlcNAc
# Outline: as §1
# [15] = molecular target: Gal(b1-4)GlcNAc(b1-3)Gal(b1-4)GlcNAc(b1-2)Man(a1-3)[Gal(b1-4)GlcNAc(b1-3)Gal(b1-4)GlcNAc(b1-2)Man(a1-6)]Man(b1-4)GlcNAc(b1-4)[Fuc(a1-6)]GlcNAc
# Outline: as §1
# [16] = molecular target: Gal(b1-4)GlcNAc(b1-3)Gal(b1-4)GlcNAc(b1-2)[Gal(b1-4)GlcNAc(b1-3)Gal(b1-4)GlcNAc(b1-6)]Man(a1-6)[Gal(b1-4)GlcNAc(b1-3)Gal(b1-4)GlcNAc(b1-2)Man(a1-3)]Man(b1-4)GlcNAc(b1-4)GlcNAc
# Outline: as §1
# [17] = molecular target: Gal(b1-4)GlcNAc(b1-3)Gal(b1-4)GlcNAc(b1-2)[Gal(b1-4)GlcNAc(b1-3)Gal(b1-4)GlcNAc(b1-6)]Man(a1-6)[Gal(b1-4)GlcNAc(b1-3)Gal(b1-4)GlcNAc(b1-2)Man(a1-3)]Man(b1-4)GlcNAc(b1-4)[Fuc(a1-6)]GlcNAc
# Outline: as §1
# [18] = molecular target: Gal(b1-4)GlcNAc(b1-3)Gal(b1-4)GlcNAc(b1-3)Gal(b1-4)GlcNAc
# Outline: as §1
# [19] = molecular target: Gal(b1-4)GlcNAc(b1-3)Gal(b1-4)GlcNAc(b1-3)Gal(b1-4)GlcNAc(b1-2)Man(a1-3)[Gal(b1-4)GlcNAc(b1-3)Gal(b1-4)GlcNAc(b1-3)Gal(b1-4)GlcNAc(b1-2)Man(a1-6)]Man(b1-4)GlcNAc(b1-4)GlcNAc
# Outline: as §1
# [20] = molecular target: Gal(b1-4)GlcNAc(b1-3)Gal(b1-4)GlcNAc(b1-3)Gal(b1-4)GlcNAc(b1-2)Man(a1-3)[Gal(b1-4)GlcNAc(b1-3)Gal(b1-4)GlcNAc(b1-3)Gal(b1-4)GlcNAc(b1-2)Man(a1-6)]Man(b1-4)GlcNAc(b1-4)[Fuc(a1-6)]GlcNAc
# Outline: as §1
# [21] = molecular target: Gal(b1-4)GlcNAc(b1-3)Gal(b1-4)GlcNAc(b1-3)Gal(b1-4)GlcNAc(b1-2)[Gal(b1-4)GlcNAc(b1-3)Gal(b1-4)GlcNAc(b1-3)Gal(b1-4)GlcNAc(b1-6)]Man(a1-6)[Gal(b1-4)GlcNAc(b1-3)Gal(b1-4)GlcNAc(b1-3)Gal(b1-4)GlcNAc(b1-2)Man(a1-3)]Man(b1-4)GlcNAc(b1-4)[Fuc(a1-6)]GlcNAc
# Outline: as §1
# [22] = molecular target: Gal(b1-4)GlcNAc(b1-3)Gal(b1-4)GlcNAc(b1-3)Gal(b1-4)GlcNAc(b1-3)Gal(b1-4)GlcNAc(b1-2)Man(a1-3)[Gal(b1-4)GlcNAc(b1-3)Gal(b1-4)GlcNAc(b1-3)Gal(b1-4)GlcNAc(b1-3)Gal(b1-4)GlcNAc(b1-2)Man(a1-6)]Man(b1-4)GlcNAc(b1-4)GlcNAc
# Outline: as §1
# [23] = molecular target: Gal(b1-4)GlcNAc(b1-3)Gal(b1-4)GlcNAc(b1-3)Gal(b1-4)GlcNAc(b1-3)Gal(b1-4)GlcNAc(b1-2)Man(a1-3)[Gal(b1-4)GlcNAc(b1-3)Gal(b1-4)GlcNAc(b1-3)Gal(b1-4)GlcNAc(b1-3)Gal(b1-4)GlcNAc(b1-2)Man(a1-6)]Man(b1-4)GlcNAc(b1-4)[Fuc(a1-6)]GlcNAc
# Outline: as §1
# [24] = molecular target: Gal(b1-4)GlcNAc(b1-3)Gal(b1-4)GlcNAc(b1-3)Gal(b1-4)GlcNAc(b1-3)Gal(b1-4)GlcNAc(b1-2)[Gal(b1-4)GlcNAc(b1-3)Gal(b1-4)GlcNAc(b1-3)Gal(b1-4)GlcNAc(b1-3)Gal(b1-4)GlcNAc(b1-6)]Man(a1-6)[Gal(b1-4)GlcNAc(b1-3)Gal(b1-4)GlcNAc(b1-3)Gal(b1-4)GlcNAc(b1-3)Gal(b1-4)GlcNAc(b1-2)Man(a1-3)]Man(b1-4)GlcNAc(b1-4)[Fuc(a1-6)]GlcNAc
# Outline: as §1
# [25] = molecular target: Gal(b1-4)GlcNAc(b1-3)Gal(b1-4)GlcNAc(b1-3)Gal(b1-4)GlcNAc(b1-3)Gal(b1-4)GlcNAc(b1-3)Gal(b1-4)GlcNAc(b1-2)Man(a1-3)[Gal(b1-4)GlcNAc(b1-3)Gal(b1-4)GlcNAc(b1-3)Gal(b1-4)GlcNAc(b1-3)Gal(b1-4)GlcNAc(b1-3)Gal(b1-4)GlcNAc(b1-2)Man(a1-6)]Man(b1-4)GlcNAc(b1-4)GlcNAc
# Outline: as §1
# [26] = molecular target: Gal(b1-4)GlcNAc(b1-3)Gal(b1-4)GlcNAc(b1-3)Gal(b1-4)GlcNAc(b1-3)Gal(b1-4)GlcNAc(b1-3)Gal(b1-4)GlcNAc(b1-2)Man(a1-3)[Gal(b1-4)GlcNAc(b1-3)Gal(b1-4)GlcNAc(b1-3)Gal(b1-4)GlcNAc(b1-3)Gal(b1-4)GlcNAc(b1-3)Gal(b1-4)GlcNAc(b1-2)Man(a1-6)]Man(b1-4)GlcNAc(b1-4)[Fuc(a1-6)]GlcNAc
# Outline: as §1
# [27] = molecular target: Gal(b1-4)GlcNAc(b1-3)Gal(b1-4)GlcNAc(b1-3)Gal(b1-4)GlcNAc(b1-3)Gal(b1-4)GlcNAc(b1-3)Gal(b1-4)GlcNAc(b1-2)[Gal(b1-4)GlcNAc(b1-3)Gal(b1-4)GlcNAc(b1-3)Gal(b1-4)GlcNAc(b1-3)Gal(b1-4)GlcNAc(b1-3)Gal(b1-4)GlcNAc(b1-6)]Man(a1-6)[Gal(b1-4)GlcNAc(b1-3)Gal(b1-4)GlcNAc(b1-3)Gal(b1-4)GlcNAc(b1-3)Gal(b1-4)GlcNAc(b1-3)Gal(b1-4)GlcNAc(b1-2)Man(a1-3)]Man(b1-4)GlcNAc(b1-4)[Fuc(a1-6)]GlcNAc
# Outline: as §1
# [28] = molecular target: Gal(b1-4)GlcNAc(b1-3)Gal(b1-4)GlcNAc(b1-3)Gal(b1-4)GlcNAc(b1-3)Gal(b1-4)GlcNAc(b1-3)Gal(b1-4)GlcNAc(b1-3)Gal(b1-4)GlcNAc(b1-2)Man(a1-3)[Gal(b1-4)GlcNAc(b1-3)Gal(b1-4)GlcNAc(b1-3)Gal(b1-4)GlcNAc(b1-3)Gal(b1-4)GlcNAc(b1-3)Gal(b1-4)GlcNAc(b1-3)Gal(b1-4)GlcNAc(b1-2)Man(a1-6)]Man(b1-4)GlcNAc(b1-4)GlcNAc
# Outline: as §1
# [29] = molecular target: Gal(b1-4)GlcNAc(b1-3)Gal(b1-4)GlcNAc(b1-3)GalNAc
# Outline: as §1
# [30] = molecular target: Gal(b1-4)GlcNAc(b1-3)Gal(b1-4)GlcNAc(b1-3)[Gal(b1-4)GlcNAc(b1-3)Gal(b1-4)GlcNAc(b1-6)]GalNAc
# Outline: as §1
# [31] = molecular target: Gal(b1-4)GlcNAc(b1-3)Gal(b1-4)GlcNAc(b1-6)[Gal(b1-3)]GalNAc
# Outline: as §1
# [32] = molecular target: Gal(b1-4)GlcNAc(b1-3)Gal(b1-4)[Fuc(a1-3)]GlcNAc(b1-3)Gal(b1-4)[Fuc(a1-3)]GlcNAc
# Outline: as §1
# [33] = molecular target: Gal(b1-4)GlcNAc(b1-3)GalNAc
# Outline: as §1
# [34] = molecular target: Gal(b1-4)GlcNAc(b1-3)[Fuc(a1-3)GlcNAc(b1-6)]Gal(b1-4)Glc
# Outline: as §1
# [35] = molecular target: Gal(b1-4)GlcNAc(b1-3)[Gal(b1-4)GlcNAc(b1-6)]Gal(b1-4)GlcNAc
# Outline: as §1
# [36] = molecular target: Gal(b1-4)GlcNAc(b1-3)[GlcNAc(b1-6)]Gal(b1-4)GlcNAc
# Outline: as §1
# [37] = molecular target: Gal(b1-4)GlcNAc(b1-6)Gal(b1-4)GlcNAc
# Outline: as §1
binder,measurement,setting,value
SJCP1084 (Schistosoma japonicum) (protein) MRIINLVIISTALLLINLLQTKSQANGEDTKNGTPDDPGLTKSTELKVEVQALLKDKKTNMRVKWNENLLDNTKPEYHNLRDEACELLLQIVRSVVPLSQDDGECKDVTFTKYVVGTKDGAVNVKLTITFKDSVAINQKPMDLKLKLENDFKNLQSESTLKATKPTFTVKVEKRLIPISKPQTTPPTTAKNDASKENVGDIGGEDSTVPTAAPATAASANEEKDEGDKDNKDSQHPNVLTSNVNDRNLIIALVALMILAIGVALTAAVKQR,glycan array binding signal (z-score),[1],0.64
same,glycan array binding signal (z-score),[2],0.482
same,glycan array binding signal (z-score),[3],-0.436
same,glycan array binding signal (z-score),[4],-1.12
same,glycan array binding signal (z-score),[5],0.608
same,glycan array binding signal (z-score),[6],1.06
same,glycan array binding signal (z-score),[7],2.77
same,glycan array binding signal (z-score),[8],-0.924
same,glycan array binding signal (z-score),[9],1.23
same,glycan array binding signal (z-score),[10],0.508
same,glycan array binding signal (z-score),[11],0.475
same,glycan array binding signal (z-score),[12],0.943
same,glycan array binding signal (z-score),[13],-1.54
same,glycan array binding signal (z-score),[14],1.6
same,glycan array binding signal (z-score),[15],4.14
same,glycan array binding signal (z-score),[16],1.96
same,glycan array binding signal (z-score),[17],1.94
same,glycan array binding signal (z-score),[18],0.195
same,glycan array binding signal (z-score),[19],1.75
same,glycan array binding signal (z-score),[20],3.35
same,glycan array binding signal (z-score),[21],1.02
same,glycan array binding signal (z-score),[22],0.988
same,glycan array binding signal (z-score),[23],3.73
same,glycan array binding signal (z-score),[24],0.897
same,glycan array binding signal (z-score),[25],4.37
same,glycan array binding signal (z-score),[26],4.28
same,glycan array binding signal (z-score),[27],4.79
same,glycan array binding signal (z-score),[28],-0.194
same,glycan array binding signal (z-score),[29],1.08
same,glycan array binding signal (z-score),[30],1.47
same,glycan array binding signal (z-score),[31],1.52
same,glycan array binding signal (z-score),[32],-0.674
same,glycan array binding signal (z-score),[33],-0.074
same,glycan array binding signal (z-score),[34],1.21
same,glycan array binding signal (z-score),[35],0.357
same,glycan array binding signal (z-score),[36],-0.548
same,glycan array binding signal (z-score),[37],0.142
